Laboratory results published in article doi:10.1101/377390.

Chains of the proteins cited; added tags and fusions are not shown. Lines headed by an entry give the natural chain unless they say otherwise; changes in a name come on top.
UniProt O01819: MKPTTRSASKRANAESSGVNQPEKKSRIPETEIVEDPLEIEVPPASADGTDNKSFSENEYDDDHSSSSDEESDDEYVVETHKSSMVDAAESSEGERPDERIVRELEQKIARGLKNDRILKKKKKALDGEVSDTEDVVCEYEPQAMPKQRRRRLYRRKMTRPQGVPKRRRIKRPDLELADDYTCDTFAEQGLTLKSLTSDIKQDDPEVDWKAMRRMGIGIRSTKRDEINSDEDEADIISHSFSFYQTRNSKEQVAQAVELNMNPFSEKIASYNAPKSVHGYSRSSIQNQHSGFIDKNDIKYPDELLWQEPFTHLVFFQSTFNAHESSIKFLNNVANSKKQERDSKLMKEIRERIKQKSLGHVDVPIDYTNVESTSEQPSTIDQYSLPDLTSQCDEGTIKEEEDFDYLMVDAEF

Target: T1, PRDE-1 (C. elegans) (UniProt O17828)
T1 sequence: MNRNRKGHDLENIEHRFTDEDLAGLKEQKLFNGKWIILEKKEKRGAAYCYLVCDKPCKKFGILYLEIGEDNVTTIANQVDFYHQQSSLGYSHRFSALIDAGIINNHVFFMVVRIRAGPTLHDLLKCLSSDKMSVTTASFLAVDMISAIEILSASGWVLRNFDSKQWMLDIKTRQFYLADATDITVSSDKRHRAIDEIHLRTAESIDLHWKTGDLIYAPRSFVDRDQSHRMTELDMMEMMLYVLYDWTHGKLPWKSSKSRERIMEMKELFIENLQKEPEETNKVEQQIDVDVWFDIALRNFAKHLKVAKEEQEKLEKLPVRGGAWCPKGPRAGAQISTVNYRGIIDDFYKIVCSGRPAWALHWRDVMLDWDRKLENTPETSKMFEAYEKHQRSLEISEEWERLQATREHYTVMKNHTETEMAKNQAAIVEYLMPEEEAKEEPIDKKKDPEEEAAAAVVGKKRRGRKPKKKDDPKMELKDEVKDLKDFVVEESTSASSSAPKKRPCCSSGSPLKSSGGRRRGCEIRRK
Assay: affinity purification with mass spectrometry

- binding: binds
Substance: TOFU-4 (from UniProt O01819)

Results are given in words; binding and its absence hold for the method and conditions named. Binding seen in cells or lysates may run through a third protein. Here binding means that the protein was enriched with, or labelled near, the bait; the list need not be complete.
